Results reported in article doi:10.1101/2022.03.15.484378.
No constants are given. Whether binding was seen depends on the method and setting. In cells and extracts the contact can be indirect. Here binding means that the protein was enriched with, or labelled near, the bait; the list need not be complete.

The chains behind the UniProt entries cited, without tags or fusion partners. Residues count along the entry.
UniProt Q01705, residues 19-2531: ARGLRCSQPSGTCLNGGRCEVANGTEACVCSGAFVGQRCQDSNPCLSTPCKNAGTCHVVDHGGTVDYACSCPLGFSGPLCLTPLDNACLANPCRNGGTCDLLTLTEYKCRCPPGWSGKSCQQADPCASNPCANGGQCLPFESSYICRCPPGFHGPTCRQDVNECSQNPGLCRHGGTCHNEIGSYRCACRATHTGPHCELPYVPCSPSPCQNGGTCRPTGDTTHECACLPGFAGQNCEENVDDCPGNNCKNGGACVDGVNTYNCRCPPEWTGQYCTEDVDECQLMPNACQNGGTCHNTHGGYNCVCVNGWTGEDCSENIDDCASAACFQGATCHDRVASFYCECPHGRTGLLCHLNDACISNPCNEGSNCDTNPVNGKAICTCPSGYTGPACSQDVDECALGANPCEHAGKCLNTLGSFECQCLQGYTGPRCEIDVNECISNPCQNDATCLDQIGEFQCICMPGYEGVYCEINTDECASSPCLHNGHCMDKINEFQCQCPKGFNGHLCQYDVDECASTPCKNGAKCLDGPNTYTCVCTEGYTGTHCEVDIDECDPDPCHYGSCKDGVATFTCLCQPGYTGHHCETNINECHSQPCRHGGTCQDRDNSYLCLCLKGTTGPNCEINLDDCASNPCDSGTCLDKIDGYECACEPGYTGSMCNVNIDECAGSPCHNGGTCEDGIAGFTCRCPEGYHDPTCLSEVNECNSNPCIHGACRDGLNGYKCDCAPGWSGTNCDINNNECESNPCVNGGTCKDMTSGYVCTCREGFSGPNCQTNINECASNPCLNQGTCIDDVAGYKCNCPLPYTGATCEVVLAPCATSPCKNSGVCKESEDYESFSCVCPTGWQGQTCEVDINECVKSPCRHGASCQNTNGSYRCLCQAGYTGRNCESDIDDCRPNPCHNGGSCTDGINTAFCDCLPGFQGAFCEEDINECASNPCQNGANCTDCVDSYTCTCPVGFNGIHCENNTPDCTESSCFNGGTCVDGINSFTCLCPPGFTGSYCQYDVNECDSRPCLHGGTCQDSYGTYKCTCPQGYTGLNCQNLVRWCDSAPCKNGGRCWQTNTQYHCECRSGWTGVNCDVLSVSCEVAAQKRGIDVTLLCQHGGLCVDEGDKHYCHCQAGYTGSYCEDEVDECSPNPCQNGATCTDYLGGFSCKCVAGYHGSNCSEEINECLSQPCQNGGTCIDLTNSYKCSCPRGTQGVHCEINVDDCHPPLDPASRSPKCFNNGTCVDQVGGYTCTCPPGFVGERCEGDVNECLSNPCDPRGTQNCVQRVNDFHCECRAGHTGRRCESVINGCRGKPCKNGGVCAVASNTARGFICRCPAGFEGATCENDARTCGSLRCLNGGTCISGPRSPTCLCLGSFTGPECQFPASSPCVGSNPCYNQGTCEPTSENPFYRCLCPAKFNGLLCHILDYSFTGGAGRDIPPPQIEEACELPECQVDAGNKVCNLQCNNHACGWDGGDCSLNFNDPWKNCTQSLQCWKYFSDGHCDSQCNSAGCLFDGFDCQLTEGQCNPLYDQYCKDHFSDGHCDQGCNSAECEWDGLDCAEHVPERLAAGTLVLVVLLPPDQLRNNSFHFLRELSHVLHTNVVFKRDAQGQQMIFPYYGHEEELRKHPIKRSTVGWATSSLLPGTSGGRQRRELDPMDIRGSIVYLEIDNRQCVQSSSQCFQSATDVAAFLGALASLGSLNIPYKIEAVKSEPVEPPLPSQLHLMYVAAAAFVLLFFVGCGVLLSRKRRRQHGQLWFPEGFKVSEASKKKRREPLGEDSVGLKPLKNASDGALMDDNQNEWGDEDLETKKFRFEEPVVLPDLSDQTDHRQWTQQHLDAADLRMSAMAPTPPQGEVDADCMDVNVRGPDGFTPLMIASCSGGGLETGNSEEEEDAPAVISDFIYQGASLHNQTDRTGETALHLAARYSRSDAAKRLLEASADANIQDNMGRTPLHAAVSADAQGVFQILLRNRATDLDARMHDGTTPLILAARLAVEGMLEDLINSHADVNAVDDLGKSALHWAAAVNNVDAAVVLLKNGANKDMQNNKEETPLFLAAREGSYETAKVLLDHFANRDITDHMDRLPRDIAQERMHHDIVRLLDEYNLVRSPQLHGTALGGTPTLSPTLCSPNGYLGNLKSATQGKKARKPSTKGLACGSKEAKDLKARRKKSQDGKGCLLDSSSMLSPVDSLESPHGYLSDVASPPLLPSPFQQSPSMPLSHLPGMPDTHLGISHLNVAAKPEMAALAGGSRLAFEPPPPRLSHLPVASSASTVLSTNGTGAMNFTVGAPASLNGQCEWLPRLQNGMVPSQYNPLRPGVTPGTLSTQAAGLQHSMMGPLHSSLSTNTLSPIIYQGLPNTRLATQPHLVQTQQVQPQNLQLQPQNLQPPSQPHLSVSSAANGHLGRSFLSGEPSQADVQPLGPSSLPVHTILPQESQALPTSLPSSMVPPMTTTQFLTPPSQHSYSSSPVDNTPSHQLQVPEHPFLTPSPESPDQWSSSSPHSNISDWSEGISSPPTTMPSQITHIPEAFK
UniProt Q3TTA7: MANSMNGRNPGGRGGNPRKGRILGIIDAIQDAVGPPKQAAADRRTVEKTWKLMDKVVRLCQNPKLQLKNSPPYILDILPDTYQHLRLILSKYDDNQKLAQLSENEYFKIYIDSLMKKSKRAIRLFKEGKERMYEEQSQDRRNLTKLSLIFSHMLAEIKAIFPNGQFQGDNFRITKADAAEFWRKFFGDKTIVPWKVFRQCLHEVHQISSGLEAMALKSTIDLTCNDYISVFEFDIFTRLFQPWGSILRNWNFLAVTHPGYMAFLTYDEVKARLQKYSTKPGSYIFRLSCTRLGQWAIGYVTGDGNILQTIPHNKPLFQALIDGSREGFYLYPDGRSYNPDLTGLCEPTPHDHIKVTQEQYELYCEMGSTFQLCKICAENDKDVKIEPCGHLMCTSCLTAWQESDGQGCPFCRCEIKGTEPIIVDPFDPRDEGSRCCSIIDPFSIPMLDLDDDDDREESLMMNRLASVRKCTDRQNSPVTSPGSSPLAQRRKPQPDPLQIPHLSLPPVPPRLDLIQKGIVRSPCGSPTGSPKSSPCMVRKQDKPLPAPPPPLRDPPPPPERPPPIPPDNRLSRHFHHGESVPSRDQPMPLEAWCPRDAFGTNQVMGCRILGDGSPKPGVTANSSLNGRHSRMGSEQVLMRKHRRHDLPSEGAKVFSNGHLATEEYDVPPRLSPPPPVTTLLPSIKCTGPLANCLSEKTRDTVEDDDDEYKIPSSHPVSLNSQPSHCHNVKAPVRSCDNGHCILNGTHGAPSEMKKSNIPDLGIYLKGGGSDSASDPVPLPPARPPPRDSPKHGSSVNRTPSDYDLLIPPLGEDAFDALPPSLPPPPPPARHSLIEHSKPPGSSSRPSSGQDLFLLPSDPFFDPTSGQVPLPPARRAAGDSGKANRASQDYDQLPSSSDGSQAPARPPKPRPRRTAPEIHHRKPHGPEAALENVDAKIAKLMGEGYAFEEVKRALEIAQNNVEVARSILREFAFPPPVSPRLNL

Target: Notch1 (endogenous, primary mouse CD8+ T-cells) (mouse (endogenous in primary CD8+ T-cells)) (UniProt Q01705)
Assay: affinity purification with mass spectrometry

binding: binds
Substance: Casitas B-lineage lymphoma b (Cbl-b), endogenous in primary mouse CD8+ T-cells (from UniProt Q3TTA7 1-982) (enzyme)
